Paper PMC12152620
No constants are given. Whether binding was seen depends on the method and setting. For some assays here: Binding seen in cells or lysates may run through a third protein. Some entries that bind do so weakly or less than the wild type. Sequences can lack the tags named with a protein.

T1: His-tagged Rsa1p complexed with Hit1p (S. cerevisiae) (UniProt Q08932+P46973)
T1 sequence 1: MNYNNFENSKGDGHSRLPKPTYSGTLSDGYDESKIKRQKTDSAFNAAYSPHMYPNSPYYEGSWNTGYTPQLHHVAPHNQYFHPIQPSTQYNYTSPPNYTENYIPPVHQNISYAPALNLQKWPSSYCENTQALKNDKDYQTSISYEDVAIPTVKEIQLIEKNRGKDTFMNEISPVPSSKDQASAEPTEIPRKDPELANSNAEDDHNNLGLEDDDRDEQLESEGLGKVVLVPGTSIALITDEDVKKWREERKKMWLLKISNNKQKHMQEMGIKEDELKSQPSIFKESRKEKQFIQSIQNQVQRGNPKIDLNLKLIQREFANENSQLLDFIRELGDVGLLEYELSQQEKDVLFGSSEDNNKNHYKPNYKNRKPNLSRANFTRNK
T1 sequence 2: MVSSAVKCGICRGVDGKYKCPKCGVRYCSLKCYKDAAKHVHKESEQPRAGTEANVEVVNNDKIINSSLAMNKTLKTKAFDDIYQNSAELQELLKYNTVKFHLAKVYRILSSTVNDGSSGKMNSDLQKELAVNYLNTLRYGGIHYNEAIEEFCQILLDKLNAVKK

T2: His-tagged Rsa1p (S. cerevisiae) (UniProt Q08932)
T2 sequence: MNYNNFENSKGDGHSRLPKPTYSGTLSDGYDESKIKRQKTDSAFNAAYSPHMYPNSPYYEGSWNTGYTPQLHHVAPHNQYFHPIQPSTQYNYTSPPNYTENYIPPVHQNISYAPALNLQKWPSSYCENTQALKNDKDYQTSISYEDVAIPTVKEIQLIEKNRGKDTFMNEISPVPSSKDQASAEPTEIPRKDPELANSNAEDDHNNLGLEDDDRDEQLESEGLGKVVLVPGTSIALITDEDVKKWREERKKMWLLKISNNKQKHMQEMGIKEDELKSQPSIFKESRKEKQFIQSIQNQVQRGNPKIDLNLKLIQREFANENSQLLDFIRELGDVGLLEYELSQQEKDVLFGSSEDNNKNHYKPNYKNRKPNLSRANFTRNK

B1: FLAG-tagged Atg8p (protein, UniProt P38182 1-117)
chain: MKSTFKSEYPFEKRKAESERIADRFKNRIPVICEKAEKSDIPEIDKRKYLVPADLTVGQFVYVIRKRIMLPPEKAIFIFVNDTLPPTAALMSAIYQEHKDKDGFLYVTYSGENTFGR
B2: Hit1p (protein, UniProt P46973 1-164)
chain: MVSSAVKCGICRGVDGKYKCPKCGVRYCSLKCYKDAAKHVHKESEQPRAGTEANVEVVNNDKIINSSLAMNKTLKTKAFDDIYQNSAELQELLKYNTVKFHLAKVYRILSSTVNDGSSGKMNSDLQKELAVNYLNTLRYGGIHYNEAIEEFCQILLDKLNAVKK

What was measured:
[1] = target: T1, His-tagged Rsa1p complexed with Hit1p (S. cerevisiae); experiment: pull-down; His-tagged Rsa1p (purified as a complex with Hit1p) on Dynabeads His-Tag magnetic beads, incubated with E. coli lysate containing FLAG-tagged Atg8p overnight at 4 °C; washed 4 times with 50 mM Na3PO4, 300 mM NaCl, 0.1% Triton X-100; eluted with 300 mM imidazole; Western blotting with anti-His-tag and anti-FLAG-tag antibodies; only the target purified
[2] = target: T2, His-tagged Rsa1p (S. cerevisiae); experiment: co-purification (Ni-NTA); Rsa1p and Hit1p co-expressed in E. coli; lysate in 20 mM Tris-HCl pH 7.5, 500 mM NaCl, 20 mM imidazole applied to Ni-NTA; eluted with 250 mM imidazole

| Binder | binding [1] | binding [2] |
| --- | --- | --- |
| B1 | binds |  |
| B2 |  | binds |
